Some of the results follow.
Compound: CCN(CCCOc1ccc2c(Nc3cc(CC(=O)Nc4cccc(F)c4)[nH]n3)ncnc2c1)CCOP(=O)(O)O [barasertib]
Assay: log2 fold change, soluble protein after heating vs DMSO (PISA); higher = thermal stabilisation; K562 lysate, 10 uM; active = over 0.2 and 3.5 SD of the protein, either way, in both replicates (recomputed)
Procedure, shortened: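 Pellets of K562 cells were dounce-homogenised in PBS pH 7.4 with 1 mM MgCl2, and the crude extract was held at 1 mg/mL protein for a 30 min treatment with 10 μM compound. Aliquots were heated for 3 min over 48°C-58°C and pooled before NP-40 was added to 0.5% at 4°C. The supernatant from 21,000xg for 90 min was quantified by TMTpro 16plex LC-MS/MS with channel sums equalised. Values are reported from duplicates as log-two fold change in thermal stability relative to solvent controls.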

Amino acid sequences for entries named in this document (tags omitted). A change or cut given only in a name is not applied to a line headed by its entry.
UniProt Q9UL63, whole entry, looked up: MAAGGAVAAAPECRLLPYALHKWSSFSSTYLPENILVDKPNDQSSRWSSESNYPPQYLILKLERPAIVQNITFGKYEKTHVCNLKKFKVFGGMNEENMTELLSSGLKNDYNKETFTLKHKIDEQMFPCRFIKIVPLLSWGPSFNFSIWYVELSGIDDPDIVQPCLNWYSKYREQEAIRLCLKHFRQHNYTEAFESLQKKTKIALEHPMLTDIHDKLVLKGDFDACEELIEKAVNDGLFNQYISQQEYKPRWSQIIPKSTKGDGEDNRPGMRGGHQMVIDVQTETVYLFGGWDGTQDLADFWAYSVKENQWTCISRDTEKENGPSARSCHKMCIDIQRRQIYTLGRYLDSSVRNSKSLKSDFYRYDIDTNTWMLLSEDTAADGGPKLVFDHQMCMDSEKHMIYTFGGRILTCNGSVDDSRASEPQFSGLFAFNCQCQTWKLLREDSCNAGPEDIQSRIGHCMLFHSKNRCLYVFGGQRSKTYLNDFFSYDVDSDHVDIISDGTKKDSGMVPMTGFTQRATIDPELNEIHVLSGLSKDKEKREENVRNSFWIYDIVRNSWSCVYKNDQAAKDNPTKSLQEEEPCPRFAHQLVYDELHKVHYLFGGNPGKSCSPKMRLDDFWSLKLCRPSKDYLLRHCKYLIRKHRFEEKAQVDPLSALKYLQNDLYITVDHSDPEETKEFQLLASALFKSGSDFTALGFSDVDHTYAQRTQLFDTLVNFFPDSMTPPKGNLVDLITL
UniProt Q99735: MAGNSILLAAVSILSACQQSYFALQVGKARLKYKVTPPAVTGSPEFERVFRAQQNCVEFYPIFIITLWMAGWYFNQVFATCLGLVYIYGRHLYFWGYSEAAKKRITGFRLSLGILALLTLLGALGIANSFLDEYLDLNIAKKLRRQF
UniProt Q96EN8: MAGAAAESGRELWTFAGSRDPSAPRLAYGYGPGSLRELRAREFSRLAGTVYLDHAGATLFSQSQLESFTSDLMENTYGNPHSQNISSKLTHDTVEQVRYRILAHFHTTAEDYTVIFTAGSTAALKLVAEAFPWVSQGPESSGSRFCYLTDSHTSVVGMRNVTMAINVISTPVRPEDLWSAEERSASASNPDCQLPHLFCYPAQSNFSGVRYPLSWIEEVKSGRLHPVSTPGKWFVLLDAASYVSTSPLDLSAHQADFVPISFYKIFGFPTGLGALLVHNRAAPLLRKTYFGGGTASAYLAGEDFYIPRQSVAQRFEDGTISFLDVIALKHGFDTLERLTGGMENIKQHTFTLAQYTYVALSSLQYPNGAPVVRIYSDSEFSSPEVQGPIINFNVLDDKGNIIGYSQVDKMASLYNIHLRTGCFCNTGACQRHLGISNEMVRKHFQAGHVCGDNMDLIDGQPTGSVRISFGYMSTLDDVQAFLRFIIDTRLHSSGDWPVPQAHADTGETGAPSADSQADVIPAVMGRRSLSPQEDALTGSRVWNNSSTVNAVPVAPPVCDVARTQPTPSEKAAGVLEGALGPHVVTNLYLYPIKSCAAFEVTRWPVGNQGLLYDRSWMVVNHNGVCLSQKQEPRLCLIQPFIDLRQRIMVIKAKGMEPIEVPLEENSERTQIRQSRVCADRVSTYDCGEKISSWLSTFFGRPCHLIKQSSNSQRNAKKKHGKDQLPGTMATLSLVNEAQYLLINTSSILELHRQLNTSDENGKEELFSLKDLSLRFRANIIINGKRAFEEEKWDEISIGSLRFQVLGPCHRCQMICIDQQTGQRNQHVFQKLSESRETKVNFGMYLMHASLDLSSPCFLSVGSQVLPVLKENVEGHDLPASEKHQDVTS
UniProt P29372, whole entry, looked up: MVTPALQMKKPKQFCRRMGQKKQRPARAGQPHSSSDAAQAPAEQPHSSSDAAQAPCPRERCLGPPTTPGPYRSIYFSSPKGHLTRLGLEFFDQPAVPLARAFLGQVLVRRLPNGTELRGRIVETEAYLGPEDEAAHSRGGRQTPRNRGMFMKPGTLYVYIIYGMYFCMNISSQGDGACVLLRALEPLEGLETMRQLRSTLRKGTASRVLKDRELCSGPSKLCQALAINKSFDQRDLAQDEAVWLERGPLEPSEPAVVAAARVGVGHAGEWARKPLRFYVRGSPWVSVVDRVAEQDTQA
UniProt Q8IYU8: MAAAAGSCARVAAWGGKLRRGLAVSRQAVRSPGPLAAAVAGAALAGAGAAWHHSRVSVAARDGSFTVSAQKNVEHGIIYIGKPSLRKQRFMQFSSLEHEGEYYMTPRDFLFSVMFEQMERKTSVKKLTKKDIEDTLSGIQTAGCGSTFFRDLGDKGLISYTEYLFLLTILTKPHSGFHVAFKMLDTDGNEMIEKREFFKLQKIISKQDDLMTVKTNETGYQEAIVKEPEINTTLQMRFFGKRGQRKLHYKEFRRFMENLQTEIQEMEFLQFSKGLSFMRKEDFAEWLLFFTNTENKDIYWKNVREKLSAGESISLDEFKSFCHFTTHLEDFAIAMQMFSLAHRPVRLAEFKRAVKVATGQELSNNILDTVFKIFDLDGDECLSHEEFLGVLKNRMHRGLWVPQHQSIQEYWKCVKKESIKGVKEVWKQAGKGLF
UniProt Q9NV56, whole entry, looked up: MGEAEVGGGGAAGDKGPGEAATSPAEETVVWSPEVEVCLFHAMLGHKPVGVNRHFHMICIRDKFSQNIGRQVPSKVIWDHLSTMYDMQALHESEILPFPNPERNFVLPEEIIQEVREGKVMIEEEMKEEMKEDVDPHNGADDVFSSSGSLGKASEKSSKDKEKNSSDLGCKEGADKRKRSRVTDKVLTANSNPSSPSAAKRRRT
UniProt P46013: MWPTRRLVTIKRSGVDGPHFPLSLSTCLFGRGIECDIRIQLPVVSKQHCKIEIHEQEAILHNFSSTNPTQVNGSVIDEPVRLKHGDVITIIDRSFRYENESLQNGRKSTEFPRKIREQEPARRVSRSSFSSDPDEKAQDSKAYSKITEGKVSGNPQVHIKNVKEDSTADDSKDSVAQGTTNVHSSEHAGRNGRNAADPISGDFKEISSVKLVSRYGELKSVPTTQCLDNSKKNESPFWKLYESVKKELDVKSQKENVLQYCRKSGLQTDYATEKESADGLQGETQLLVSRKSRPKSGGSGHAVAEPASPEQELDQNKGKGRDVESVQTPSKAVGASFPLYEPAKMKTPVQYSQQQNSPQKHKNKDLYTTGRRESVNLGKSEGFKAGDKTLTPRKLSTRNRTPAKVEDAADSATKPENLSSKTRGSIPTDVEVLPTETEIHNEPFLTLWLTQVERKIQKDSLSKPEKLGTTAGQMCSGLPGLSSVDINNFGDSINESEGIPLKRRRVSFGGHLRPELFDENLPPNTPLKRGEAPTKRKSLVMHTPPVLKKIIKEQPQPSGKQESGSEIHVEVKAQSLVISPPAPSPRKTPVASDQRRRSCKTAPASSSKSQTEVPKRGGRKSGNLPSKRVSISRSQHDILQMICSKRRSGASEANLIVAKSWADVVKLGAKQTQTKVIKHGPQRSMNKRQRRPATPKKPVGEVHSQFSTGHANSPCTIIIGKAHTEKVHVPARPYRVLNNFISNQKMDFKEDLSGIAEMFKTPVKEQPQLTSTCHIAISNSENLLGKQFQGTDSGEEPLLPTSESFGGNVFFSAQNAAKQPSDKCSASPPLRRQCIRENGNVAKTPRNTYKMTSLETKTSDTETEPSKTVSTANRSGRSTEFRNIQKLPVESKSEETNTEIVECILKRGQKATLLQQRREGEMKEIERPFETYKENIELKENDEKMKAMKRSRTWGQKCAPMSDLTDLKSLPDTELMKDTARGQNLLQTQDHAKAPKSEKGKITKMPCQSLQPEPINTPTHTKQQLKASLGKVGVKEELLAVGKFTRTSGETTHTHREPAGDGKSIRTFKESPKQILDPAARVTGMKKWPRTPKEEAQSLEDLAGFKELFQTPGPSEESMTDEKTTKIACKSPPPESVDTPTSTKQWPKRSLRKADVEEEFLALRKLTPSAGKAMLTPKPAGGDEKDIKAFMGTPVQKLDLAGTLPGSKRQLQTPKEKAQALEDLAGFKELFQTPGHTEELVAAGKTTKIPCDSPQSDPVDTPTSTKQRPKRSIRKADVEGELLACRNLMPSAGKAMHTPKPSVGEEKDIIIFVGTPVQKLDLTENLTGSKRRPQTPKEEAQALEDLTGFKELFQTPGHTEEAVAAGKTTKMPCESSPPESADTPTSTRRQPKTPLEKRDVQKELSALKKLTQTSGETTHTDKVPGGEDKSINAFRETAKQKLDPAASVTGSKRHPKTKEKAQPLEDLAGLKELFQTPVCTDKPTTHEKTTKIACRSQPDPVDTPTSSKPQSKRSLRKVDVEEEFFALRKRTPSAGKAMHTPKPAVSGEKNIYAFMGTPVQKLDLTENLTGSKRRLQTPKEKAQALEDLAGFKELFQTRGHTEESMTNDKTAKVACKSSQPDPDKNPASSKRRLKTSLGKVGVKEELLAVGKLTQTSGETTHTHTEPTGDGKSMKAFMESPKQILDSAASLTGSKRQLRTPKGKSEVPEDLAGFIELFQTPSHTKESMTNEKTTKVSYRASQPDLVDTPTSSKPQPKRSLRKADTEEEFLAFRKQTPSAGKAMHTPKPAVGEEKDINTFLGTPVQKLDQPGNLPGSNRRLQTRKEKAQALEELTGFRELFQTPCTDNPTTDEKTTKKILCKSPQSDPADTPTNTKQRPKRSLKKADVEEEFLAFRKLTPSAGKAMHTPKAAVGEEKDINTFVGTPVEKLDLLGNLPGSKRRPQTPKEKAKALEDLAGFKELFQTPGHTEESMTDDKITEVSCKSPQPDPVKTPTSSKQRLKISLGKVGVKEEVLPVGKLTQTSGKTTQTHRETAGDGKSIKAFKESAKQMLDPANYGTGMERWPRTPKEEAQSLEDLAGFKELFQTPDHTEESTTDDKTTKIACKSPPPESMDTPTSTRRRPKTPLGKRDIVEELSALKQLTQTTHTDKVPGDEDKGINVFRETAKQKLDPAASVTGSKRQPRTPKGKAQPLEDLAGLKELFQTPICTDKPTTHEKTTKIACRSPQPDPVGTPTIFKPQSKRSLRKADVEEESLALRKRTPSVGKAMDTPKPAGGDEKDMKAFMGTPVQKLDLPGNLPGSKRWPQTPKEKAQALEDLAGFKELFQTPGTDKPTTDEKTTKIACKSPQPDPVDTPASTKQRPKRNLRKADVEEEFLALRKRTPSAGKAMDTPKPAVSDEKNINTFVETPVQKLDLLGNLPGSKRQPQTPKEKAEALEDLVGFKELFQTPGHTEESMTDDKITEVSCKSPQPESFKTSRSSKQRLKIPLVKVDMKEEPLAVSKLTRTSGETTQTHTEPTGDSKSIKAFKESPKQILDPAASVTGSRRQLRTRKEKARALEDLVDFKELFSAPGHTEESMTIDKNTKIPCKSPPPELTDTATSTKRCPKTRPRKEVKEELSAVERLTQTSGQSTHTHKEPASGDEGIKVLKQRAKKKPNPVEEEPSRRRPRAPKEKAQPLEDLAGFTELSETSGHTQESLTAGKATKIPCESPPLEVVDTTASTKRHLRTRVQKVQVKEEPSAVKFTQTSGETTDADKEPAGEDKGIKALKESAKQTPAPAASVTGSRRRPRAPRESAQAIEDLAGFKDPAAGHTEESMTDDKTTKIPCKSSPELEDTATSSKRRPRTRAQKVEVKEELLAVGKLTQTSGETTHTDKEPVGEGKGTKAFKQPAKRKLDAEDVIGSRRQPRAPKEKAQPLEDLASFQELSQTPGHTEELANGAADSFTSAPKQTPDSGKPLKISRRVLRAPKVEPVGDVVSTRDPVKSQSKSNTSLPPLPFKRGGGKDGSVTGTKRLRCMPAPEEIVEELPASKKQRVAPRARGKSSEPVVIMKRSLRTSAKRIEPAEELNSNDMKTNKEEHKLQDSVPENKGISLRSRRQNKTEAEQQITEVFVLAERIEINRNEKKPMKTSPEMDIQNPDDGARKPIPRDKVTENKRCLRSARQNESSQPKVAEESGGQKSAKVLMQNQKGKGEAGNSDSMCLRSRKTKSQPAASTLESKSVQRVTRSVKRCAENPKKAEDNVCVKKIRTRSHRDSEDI
UniProt Q9NZB8: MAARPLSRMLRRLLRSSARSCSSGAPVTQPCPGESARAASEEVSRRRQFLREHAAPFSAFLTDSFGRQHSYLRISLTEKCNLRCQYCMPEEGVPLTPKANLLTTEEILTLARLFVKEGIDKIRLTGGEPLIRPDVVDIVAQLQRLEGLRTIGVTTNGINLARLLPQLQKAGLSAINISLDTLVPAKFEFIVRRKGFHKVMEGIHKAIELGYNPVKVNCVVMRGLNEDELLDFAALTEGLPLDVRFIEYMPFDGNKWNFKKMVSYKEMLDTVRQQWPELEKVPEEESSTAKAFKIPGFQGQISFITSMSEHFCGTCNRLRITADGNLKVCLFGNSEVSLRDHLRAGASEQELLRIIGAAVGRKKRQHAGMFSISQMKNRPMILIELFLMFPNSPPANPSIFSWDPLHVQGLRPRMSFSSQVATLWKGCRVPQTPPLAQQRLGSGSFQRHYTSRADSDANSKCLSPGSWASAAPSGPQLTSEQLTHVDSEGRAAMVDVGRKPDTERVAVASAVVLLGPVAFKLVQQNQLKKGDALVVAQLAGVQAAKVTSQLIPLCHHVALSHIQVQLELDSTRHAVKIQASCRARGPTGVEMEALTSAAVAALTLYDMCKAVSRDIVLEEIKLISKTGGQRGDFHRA

log2 fold change, inactive:
MKLN1 (UniProt Q9UL63) -0.028
MICAL3 (UniProt Q7RTP6) 0.06
MGST1 (UniProt P10620) 0.027
MMADHC (UniProt Q9H3L0) 0.017
MON1B (UniProt Q7L1V2) -0.007
MRPL16 (UniProt Q9NX20) 0.054
MOSPD2 (UniProt Q8NHP6) -0.007
MON2 isoform 5 (UniProt Q7Z3U7) 0.008
MGST2 (UniProt Q99735) -0.02
MICAL2 (UniProt O94851) -0.045
MOCOS (UniProt Q96EN8) 0
MPG (UniProt P29372) -0.004
MRPL1 (UniProt Q9BYD6) 0.02
MRAS (UniProt O14807) -0.044
MOB4 (UniProt Q9Y3A3) -0.012
MIPEP (UniProt Q99797) 0.006
MLST8 (UniProt Q9BVC4) 0.074
MORC3 (UniProt Q14149) 0.019
MPV17 (UniProt P39210) 0.041
MICU2 (UniProt Q8IYU8) 0.109
MOB3B (UniProt Q86TA1) 0.054
MGA (UniProt Q8IWI9) 0.062
MNX1 (UniProt P50219) -0.114
MINDY1 isoform 3 (UniProt Q8N5J2) -0.201
MRE11 isoform 3 (UniProt P49959) -0.006
MRPL2 (UniProt Q5T653) 0.009
MPLKIP (UniProt Q8TAP9) -0.206
MMS22L (UniProt Q6ZRQ5) 0.083
MRGBP (UniProt Q9NV56) 0.067
MOCS2 (UniProt O96007) 0.014
MKRN3 (UniProt Q13064) 0.021
MGRN1 isoform 2 (UniProt O60291) 0.026
MIF4GD isoform 3 (UniProt A9UHW6) 0.051
MKI67 (UniProt P46013) -0.012
MOCS1 isoform 8 (UniProt Q9NZB8) 0.166
MRM1 (UniProt Q6IN84) -0.018
MITD1 (UniProt Q8WV92) 0.057

Nothing new here: an excerpt of the list.
log2 fold change, inactive:
MRM1 (UniProt Q6IN84) -0.018
MITD1 (UniProt Q8WV92) 0.057
